Measured values from publication PMC5207070, “The Amino-terminal Domain of the Androgen Receptor Co-opts Extracellular Signal-regulated Kinase (ERK) Docking Sites in ELK1 Protein to Induce Sustained Gene Activation That Supports Prostate Cancer Cell Growth*^([image sbox.jpg])” (The Journal of Biological Chemistry, 2016).
Positions count from the first letter of the chain named. Results are given in words; binding and its absence hold for the method and conditions named. For some of these results: A result given as binding can be weak or reduced; the word gives no strength. For some of these results: Sequences can lack the tags named with a protein.

Tests used:
Assay in all cases: two-hybrid; mammalian two-hybrid in HeLa cells with stably integrated GAL4-TATA-LUC and stably expressed AR(A/B)-VP16; Gal4-ELK1 fusion constructs transfected; luciferase in lysates 48 h after transfection
[1] = biological target: T1, Gal4-ELK1 construct in which the D-box region (ELK1 residues 308–321) was deleted (human) (UniProt P19419)
T1 sequence: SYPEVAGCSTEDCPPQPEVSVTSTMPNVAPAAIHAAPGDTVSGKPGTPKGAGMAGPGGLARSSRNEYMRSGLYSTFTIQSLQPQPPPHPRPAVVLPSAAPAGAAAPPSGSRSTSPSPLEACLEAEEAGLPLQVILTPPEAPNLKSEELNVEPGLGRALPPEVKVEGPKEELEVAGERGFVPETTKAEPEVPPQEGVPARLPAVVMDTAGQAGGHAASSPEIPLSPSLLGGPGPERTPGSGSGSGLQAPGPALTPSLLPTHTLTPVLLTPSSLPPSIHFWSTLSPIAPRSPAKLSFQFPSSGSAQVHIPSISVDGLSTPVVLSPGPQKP

[2] = biological target: T2, Gal4-ELK1 construct in which the FQFP motif was mutated to FQLA (human) (UniProt P19419)
T2 sequence: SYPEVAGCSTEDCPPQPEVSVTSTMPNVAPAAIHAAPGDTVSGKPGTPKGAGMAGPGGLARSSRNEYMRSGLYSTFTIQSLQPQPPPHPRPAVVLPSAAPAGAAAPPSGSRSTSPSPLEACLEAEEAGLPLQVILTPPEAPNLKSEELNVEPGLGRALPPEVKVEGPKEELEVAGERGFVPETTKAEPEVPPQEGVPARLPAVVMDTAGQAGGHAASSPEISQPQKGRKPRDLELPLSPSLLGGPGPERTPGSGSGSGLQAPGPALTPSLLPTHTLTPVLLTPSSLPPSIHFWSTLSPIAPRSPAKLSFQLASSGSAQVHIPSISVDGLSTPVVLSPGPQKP

[3] = biological target: T3, Gal4-ELK1 construct with both lesions (FQFP to FQLA and deletion of the D-box region 308–321) (human) (UniProt P19419)
T3 sequence: T1 sequence with F297L, P298A

[4] = biological target: T4, Gal4-ELK1 with deletion of residues 331–340 (human) (UniProt P19419)
T4 sequence: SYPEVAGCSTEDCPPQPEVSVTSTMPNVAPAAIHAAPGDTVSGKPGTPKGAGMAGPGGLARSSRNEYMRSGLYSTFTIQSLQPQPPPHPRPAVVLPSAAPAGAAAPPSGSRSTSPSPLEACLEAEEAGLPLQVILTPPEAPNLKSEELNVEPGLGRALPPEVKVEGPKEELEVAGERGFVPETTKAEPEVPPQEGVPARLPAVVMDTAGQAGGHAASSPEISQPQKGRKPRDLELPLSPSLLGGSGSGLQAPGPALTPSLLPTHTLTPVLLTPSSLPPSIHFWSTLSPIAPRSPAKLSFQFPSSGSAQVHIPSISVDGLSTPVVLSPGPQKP

[5] = biological target: T5, Gal4-ELK1 with deletion of residues 341–350 (human) (UniProt P19419)
T5 sequence: T4 sequence with S245P, S247P, G248E, L249R, Q250T, A251P, P252G, G253S, P254G

[6] = biological target: T6, Gal4-ELK1 with internal deletion 351–371 (human) (UniProt P19419)
T6 sequence: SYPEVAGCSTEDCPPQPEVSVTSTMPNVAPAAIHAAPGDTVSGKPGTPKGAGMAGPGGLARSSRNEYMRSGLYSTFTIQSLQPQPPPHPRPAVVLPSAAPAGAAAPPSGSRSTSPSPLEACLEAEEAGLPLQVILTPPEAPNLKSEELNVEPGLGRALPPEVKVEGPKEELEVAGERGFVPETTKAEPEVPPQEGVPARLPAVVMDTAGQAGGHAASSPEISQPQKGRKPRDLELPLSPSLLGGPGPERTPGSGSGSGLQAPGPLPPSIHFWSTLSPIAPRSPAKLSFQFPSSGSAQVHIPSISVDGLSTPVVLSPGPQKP

[7] = biological target: T7, Gal4-ELK1(87–428) fusion protein (human) (UniProt P19419)
T7 sequence: T2 sequence with L311F, A312P

## AR(A/B)-VP16 fusion protein (AR A/B domain fused to the VP16 transactivation domain) (human) (domain or fragment)
[1]
  binding: no binding
[2]
  binding: no binding
[3]
  binding: no binding
[4]
  binding: binds
[5]
  binding: binds
[6]
  binding: binds
[7]
  binding: binds
